In US20030133881A1, “Formulations for the remineralization of teeth” (priority 2001, published 2003):

Assay: 1H NMR evaluation of oxidative consumption of salivary biomolecules by ozone
Details: human saliva 0.60 ml, O3 for 30 seconds, 600 MHz 1H NMR

In the case of `O=[O+][O-]` [ozone], the “fate of salivary 3-D-hydroxybutyrate after O3 treatment” value is reported as “evidence for the O3-mediated oxidation of salivary 3-D-hydroxybutyrate”, the “fate of salivary methionine after O3 treatment” value is reported as “oxidation of the volatile sulphur compound precursor methionine to its corresponding sulphoxide” and the “fate of salivary polyunsaturated fatty acids after O3 treatment” value is reported as “oxidative consumption of salivary polyunsaturated fatty acids”. For the same molecule, the “fate of salivary pyruvate after O3 treatment” value was “oxidative decarboxylation of the salivary electron-donor pyruvate”.
